Measurements reported in patent EP4778539A1.
These are yes or no findings as the source states them, for the method shown. Some binding calls cover weakened binding; strength is not graded here.

Assays:
[1] = molecular target: T1, mouse CAPRIN-1 on the cell membrane surface of mouse cancer cells (mouse) (UniProt Q60865); assay: flow cytometry, mouse cancer cells
T1 sequence (looked up): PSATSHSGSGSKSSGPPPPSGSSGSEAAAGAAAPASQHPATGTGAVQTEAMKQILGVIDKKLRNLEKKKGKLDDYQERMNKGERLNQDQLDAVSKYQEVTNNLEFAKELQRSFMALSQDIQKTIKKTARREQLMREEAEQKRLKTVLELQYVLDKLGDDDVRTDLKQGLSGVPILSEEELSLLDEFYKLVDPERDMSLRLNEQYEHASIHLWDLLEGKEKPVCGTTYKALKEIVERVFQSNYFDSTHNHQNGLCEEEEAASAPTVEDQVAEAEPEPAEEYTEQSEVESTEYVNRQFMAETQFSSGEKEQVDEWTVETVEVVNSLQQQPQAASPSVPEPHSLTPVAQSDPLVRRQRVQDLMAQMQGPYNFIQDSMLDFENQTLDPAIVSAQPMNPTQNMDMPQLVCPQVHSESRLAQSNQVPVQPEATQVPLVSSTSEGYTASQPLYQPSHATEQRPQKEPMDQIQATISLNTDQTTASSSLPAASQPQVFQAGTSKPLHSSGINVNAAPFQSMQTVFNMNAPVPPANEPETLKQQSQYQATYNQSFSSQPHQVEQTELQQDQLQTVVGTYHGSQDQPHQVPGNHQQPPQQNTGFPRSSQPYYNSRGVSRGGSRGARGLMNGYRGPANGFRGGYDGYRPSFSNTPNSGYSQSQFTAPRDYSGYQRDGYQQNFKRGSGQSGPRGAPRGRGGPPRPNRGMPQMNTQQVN

[2] = molecular target: T1, mouse CAPRIN-1 on the cell membrane surface of mouse cancer cells (mouse); assay: flow cytometry, 4T1
[3] = molecular target: T2, human CAPRIN-1 on the cell membrane surface of human cancer cells (human) (UniProt Q14444); assay: flow cytometry, HT29
T2 sequence (looked up): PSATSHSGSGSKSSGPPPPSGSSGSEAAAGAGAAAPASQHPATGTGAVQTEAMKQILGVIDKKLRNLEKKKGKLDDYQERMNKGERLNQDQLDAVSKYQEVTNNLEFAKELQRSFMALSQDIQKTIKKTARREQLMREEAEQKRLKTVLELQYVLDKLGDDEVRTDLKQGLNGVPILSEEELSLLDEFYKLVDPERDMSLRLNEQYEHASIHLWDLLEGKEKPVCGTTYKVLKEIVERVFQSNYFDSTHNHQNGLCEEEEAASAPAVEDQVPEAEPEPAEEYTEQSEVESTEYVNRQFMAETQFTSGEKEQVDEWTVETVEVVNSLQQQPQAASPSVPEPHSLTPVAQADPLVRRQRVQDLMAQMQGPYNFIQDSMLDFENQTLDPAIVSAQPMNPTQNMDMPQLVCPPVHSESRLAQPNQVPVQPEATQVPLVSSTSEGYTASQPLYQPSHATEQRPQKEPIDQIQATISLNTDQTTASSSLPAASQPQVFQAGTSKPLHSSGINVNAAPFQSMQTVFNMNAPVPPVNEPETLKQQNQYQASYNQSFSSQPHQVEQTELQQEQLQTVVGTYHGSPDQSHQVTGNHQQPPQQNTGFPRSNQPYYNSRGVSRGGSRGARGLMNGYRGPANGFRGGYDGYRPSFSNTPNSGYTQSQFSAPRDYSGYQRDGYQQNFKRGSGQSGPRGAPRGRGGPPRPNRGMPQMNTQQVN

[4] = molecular target: T2, human CAPRIN-1 on the cell membrane surface of human cancer cells (human); assay: flow cytometry, human cancer cells

Measured: binding

B1: Fab complex #46 (Fab, V domains shown)
VH: GAELVRSGASVKMSCKASGYSFTDYNMYWVKQTPGQGLEWIGYIYPGNGGTNYNQKFKGKATLTADTSSSTAYMQISSLTSEDSAVYFCARDYDDGGYAMDYWGQGTTVTVSS
VL: DIQMTQSPASLSASVGETVTITCRASGNIHNYLTWYQQKQGKSPQLLVYNAKTLADGVPSRFSGSGSGTQYSLKINRLQPEDFGSYYCQHFWNIPWTFGGGTKLNSR
binds: [1] | [2] | [3] | [4]

B2: Fab complex #69 (Fab, V domains shown)
VH: EVQLVESGGGLVQPGGSLRLSCAASGFSLSSHSLGWVRQAPGKGLEWIGDIRSGGSAYYANWAKGRFTISRDNSKNTLYLQMNSLRAEDTAVYYCTRTNGPSDLTNRLDLWGQGTLVTVSS
VL: QVLTQSPSSLSASVGDRVTINCQASQSLYNNENLAWFQQKPGKVPKRLIYGASTLASGVSSRFSGSGSGTEFTLTISSLQCEDFAIYYCLGEFSCGSADCFAFGGGTKVEIK
binds: [1] | [2] | [3] | [4]

B3: Fab complex #74 (Fab, V domains shown)
VH: EVQLVESGGGLVQPGGSLRLSCAASGFSLSSHSLGWVRQAPGKGLEWIGDIRSGGSAYYANWAKGRFTISRDNSKNTLYLQMNSLRAEDTAVYFCTRTNGPSDLTNRLDLWGQGTLVTVSS
VL: EQVLTQSPSSLSASVGDRVTINCQASQSLYNNENLAWFQQKPGKVPKRLIYGASTLASGVSSRFSGSGSGTEFTLTISNLQPEDFAIYYCLGEFSCGSADCFAFGGGTKVEIK
binds: [1] | [2] | [3] | [4]

B4: Fab complex #73 (Fab, V domains shown)
VH: EVQLVESGGGLVQPGGSLRLSCAASGFSLSSHSLGWVRQAPGKGLEWIGDIRSGGSAYYANWAKGRFTISRDNSKNTLYLQMNSLRAEDTAVYYCTRTNGPSDLTNRLDLWGQGTLVTVSS
VL: EIVLTQSPSSLSASVGDRVTINCQASQSLYNNENLAWFQQKPGKVPKRLIYGASTLASGVSSRFSGSGSGTEFTLTISNLQPEDFATYYCLGEFSCGSADCFAFGGGTKVEIK
binds: [1] | [2] | [3] | [4]

B5: Fab complex #70 (Fab, V domains shown)
VH: EVQLVESGGGLVQPGGSLRLSCAASGFSLSSHSLGWVRQAPGKGLEWIGDIRSGGSAYYANWAKGRFTISRDNSKNTLYLQMNSLRAEDTAVYFCTRTNGPSDLTNRLDLWGQGTLVTVSS
VL: QVLTQSPSSLSASVGDRVTINCQASQSLYNNENLAWFQQKPGKVPKRLIYGASTLASGVSSRFSGSGSGTEFTLTISSLQCEDFAIYYCLGEFSCGSADCFAFGGGTKVEIK
binds: [1] | [2] | [3] | [4]

B6: Fab complex #71 (Fab, V domains shown)
VH: EVQLVESGGGLVQPGGSLRLSCAASGFSLSSHSLGWVRQAPGKGLEWIGDIRSGGSAYYANWAKGRFTISRDNSKNTLYLQMNSLRAEDTAVYYCTRTNGPSDLTNRLDLWGQGTLVTVSS
VL: EQVLTQSPSSLSASVGDRVTINCQASQSLYNNENLAWFQQKPGKVPKRLIYGASTLASGVSSRFSGSGSGTEFTLTISNLQPEDFAIYYCLGEFSCGSADCFAFGGGTKVEIK
binds: [1] | [2] | [3] | [4]

B7: Fab complex #72 (Fab, V domains shown)
VH: EVQLVESGGGLVQPGGSLRLSCAASGFSLSSHSLGWVRQAPGKGLEWIGDIRSGGSAYYANWAKGRFTISRDNSKNTLYLQMNSLRAEDTAVYFCTRTNGPSDLTNRLDLWGQGTLVTVSS
VL: EIVLTQSPSSLSASVGDRVTINCQASQSLYNNENLAWFQQKPGKVPKRLIYGASTLASGVSSRFSGSGSGTEFTLTISNLQPEDFATYYCLGEFSCGSADCFAFGGGTKVEIK
binds: [1] | [2] | [3] | [4]

B8: Fab complex #42 (Fab, V domains shown)
VH: AVTLDESGGGLQTPGGALSLVCKASGFTFSGYDMLWVRQAPGKGLEWVAGIGSTGGGTDYGAAVKGRATISRDNGQSTVRLQLNNLRAEDTATYYCAKVAGGCNSGYCRDSPGSIDAWGHGTEVIVS
VL: AVTQQPASVSANPGETVKITCSGGGSRNYYGWYQQKSPGSVPVTVIYYDDQRPSNIPSRFSGALSGSTSTLTITGVQADDEAVYFCGSADSNTYEGSFGAGTTLTVL
binds: [1] | [2] | [3] | [4]

B9: Fab complex #63 (Fab, V domains shown)
VH: GPDLVKPGASVKISCKASGYSFTAYYMHWVKQSHGKSLEWIGRVNPNNGGTTYNQKFKGKAILTVDKSSSTAYMELRSLTFEDSAVYYCARRIYYGYFDYWGQGTTVTVSS
VL: AFFAVSLGQRATISCKASQSVDYDGDSYMNWYQQKPGQPPKLLIYVASNLESGVPARFSGSGSGTDFTLNIHPVEEEDAATYYCQQSNEDPYTFGGGTKLEIKQ
binds: [1] | [2] | [3] | [4]

B10: Fab complex #47 (Fab, V domains shown)
VH: DAELVKPGASVKISCKASGYTFTDHSIHWVQQKPEQGLEWIGYISPGNGNIKYNEKFKGKATLTADKSSSTAYMQLNSLTSEDSAVYFCKRSLGRGGPYYFDYWGQGTTVTVSS
VL: DIVLTQAAPSLPVTPGESVSISCRSSKSLLHSNGNTYLYWFLQRPGQSPQLLIYRMSNLASGVPDRFSGSGSGTAFTLRISRVEAEDVGVYYCMQHREYPVTFGSGPN
binds: [1] | [2] | [3] | [4]
